Patent US6833135

System: T1, Ms6 integrase (Int) (Mycobacterium phage Ms6)
T1 sequence: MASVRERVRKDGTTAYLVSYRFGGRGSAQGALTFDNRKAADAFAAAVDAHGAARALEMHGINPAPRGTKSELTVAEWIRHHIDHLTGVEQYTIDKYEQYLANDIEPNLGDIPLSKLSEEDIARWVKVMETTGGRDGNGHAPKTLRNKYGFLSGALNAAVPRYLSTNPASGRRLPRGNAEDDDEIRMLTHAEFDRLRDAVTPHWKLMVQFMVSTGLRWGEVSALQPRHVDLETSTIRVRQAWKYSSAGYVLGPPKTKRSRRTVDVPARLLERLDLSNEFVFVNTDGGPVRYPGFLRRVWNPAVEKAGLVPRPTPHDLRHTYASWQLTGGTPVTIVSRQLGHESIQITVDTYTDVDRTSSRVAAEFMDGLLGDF
Assay: activity in cells
Settings: Southern blot of pAV1 integration at attB in M. smegmatis; protein in cells

GGTAGCGCACCACACTGGCAGTGTGGGGGTCAGGGGTTCGAATCCCCTTAGCTCCACTCCTCAGATACCCGCTCCGGC (double strand) [M. smegmatis attB (tRNA-Ala 3' end)]
activity on this sequence: active

Protein sequences can lack the tags named with them.
